The values below come from US20050214809.

For part of these data: Tags and fusion partners may be left off the protein sequences shown. For part of these data: Construct, isoform or probe ends are uncertain for at least one entry.

One data set addresses T1, phi29 DNA polymerase (UniProt P03680).
T1 sequence (looked up, limits assumed): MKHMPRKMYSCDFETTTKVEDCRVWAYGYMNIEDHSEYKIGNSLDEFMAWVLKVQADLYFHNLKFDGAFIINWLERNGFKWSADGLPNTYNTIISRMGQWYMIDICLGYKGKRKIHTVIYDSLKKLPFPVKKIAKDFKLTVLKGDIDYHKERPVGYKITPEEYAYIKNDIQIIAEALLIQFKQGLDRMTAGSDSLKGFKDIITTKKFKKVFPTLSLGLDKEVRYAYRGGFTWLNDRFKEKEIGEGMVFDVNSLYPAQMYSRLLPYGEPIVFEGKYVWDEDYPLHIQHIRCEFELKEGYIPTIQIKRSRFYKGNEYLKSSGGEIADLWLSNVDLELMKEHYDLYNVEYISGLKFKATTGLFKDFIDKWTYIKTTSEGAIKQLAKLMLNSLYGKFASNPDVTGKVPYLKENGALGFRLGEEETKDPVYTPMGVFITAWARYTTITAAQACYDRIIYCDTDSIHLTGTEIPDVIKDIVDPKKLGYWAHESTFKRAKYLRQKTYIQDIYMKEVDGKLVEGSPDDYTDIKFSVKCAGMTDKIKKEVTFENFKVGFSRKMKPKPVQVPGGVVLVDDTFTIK
In words: activity assay. To be noted: RCA extension, 37 C, 10 mM MgCl2; no signal without polymerase; purified recombinant protein.

The next data set has as its system thermostable RNase H. In words: enzyme reaction in vitro. The note with it: ribonucleotides at positions 11-14 (GAGA), rest DNA; 50 C, 1x RNase H buffer, 10 pmol probe, 5 units; 0.2 pmol target distinguishable in 5 min; purified recombinant protein; label: fluorescein and TAMRA on dT at positions 10 and 15.
Data set [1] deals with T2, RNase H (Escherichia coli) (UniProt P0A7Y4).
T2 sequence (looked up, limits assumed): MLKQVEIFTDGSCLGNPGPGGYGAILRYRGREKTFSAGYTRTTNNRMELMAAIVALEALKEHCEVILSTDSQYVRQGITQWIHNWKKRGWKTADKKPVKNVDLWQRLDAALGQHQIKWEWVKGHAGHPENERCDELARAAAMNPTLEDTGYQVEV
Description: enzyme reaction in vitro. To be noted: ribonucleotides at positions 11-14 (GAGA), rest DNA; 37 C, 10 mM MgCl2, phi29 buffer; target generated as RCA product; purified recombinant protein; label: fluorescein and TAMRA on dT at positions 10 and 15.

Consider “CTAAATAACCAGGTACAATATGCCATTTGAGATTTTTGAATTGGTCTTAGAACGCCATTTTGGCTGATTAAAAACGAGTG / TGGCGTTCTAAGACC [circularized RCA substrate with 15-mer primer]”, for which the “activity on this sequence” value with phi29 DNA polymerase is on record as “active”.
TATGCCATTTGAGATTTTTGAATT: the “activity on this sequence” value (with thermostable RNase H; in data set [1]) was “active” each time.
